Source: PubChem BioAssay AID652243 (Drosophila RNAi Screening Center, 2013)
The screen tested about 24,000 reagents; shown is a random part of those with a known target gene and a result. Of all reagents, 246 (1%) got an active call. 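Plates not normalised; calls are printed but the firefly/Renilla ratio behind them is not deposited; fold cut for lowering reported inconsistently.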 Raw values are not corrected between plates. Not given: the amount of reagent.

- Screen: 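Fly genes required for human androgen receptor driven transcription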 (primary screen)
- Cells: Drosophila S2R+ cells
- Reagent: long dsRNA against Drosophila genes
- Time to read-out: 72 h (48 h, then 24 h hormone)
- Treatment: synthetic androgen R1881 at 10 nM for 24 h
- Measurement: 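Firefly light from an androgen-responsive reporter and Renilla control light per well, raw and unnormalised, for each of two replicates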
- Scale: firefly reporter light: higher = more light from androgen-responsive reporter; Renilla control light: higher = more constitutive control signal (cell number, transfection)
- Call rule: 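Across duplicate plates, a knock-down whose log firefly/Renilla ratio shifted a set fold down or up from the GFP/LacZ control mean was a hit; the downward cut appears as both 1.5 and 3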
- Calls: active = hit: reporter lowered or raised; inactive = no hit

CG31279 [DRSC13158]
- firefly reporter light, replicate 1: 1.18e5
- firefly reporter light, replicate 2: 1.29e5
- Renilla control light, replicate 1: 1.68e5
- Renilla control light, replicate 2: 2.81e5
- Call: inactive

CG12121 [DRSC17816]
- firefly reporter light, replicate 1: 2.28e5
- firefly reporter light, replicate 2: 3.36e5
- Renilla control light, replicate 1: 2.53e6
- Renilla control light, replicate 2: 2.68e6
- Call: inactive

bun [DRSC01255]
- firefly reporter light, replicate 1: 3.04e5
- firefly reporter light, replicate 2: 3.58e5
- Renilla control light, replicate 1: 5.70e5
- Renilla control light, replicate 2: 5.33e5
- Call: inactive

bun [DRSC23041]
- firefly reporter light, replicate 1: 7.40e5
- firefly reporter light, replicate 2: 7.22e5
- Renilla control light, replicate 1: 1.60e6
- Renilla control light, replicate 2: 1.59e6
- Call: inactive

bun [DRSC25816]
- firefly reporter light, replicate 1: 3.90e5
- firefly reporter light, replicate 2: 4.73e5
- Renilla control light, replicate 1: 6.74e5
- Renilla control light, replicate 2: 6.48e5
- Call: inactive

wash [DRSC06302]
- firefly reporter light, replicate 1: 3.37e5
- firefly reporter light, replicate 2: 2.17e5
- Renilla control light, replicate 1: 1.97e6
- Renilla control light, replicate 2: 1.45e6
- Call: inactive

Gld [DRSC12595]
- firefly reporter light, replicate 1: 61455
- firefly reporter light, replicate 2: 44468
- Renilla control light, replicate 1: 5.85e5
- Renilla control light, replicate 2: 7.12e5
- Call: inactive

Cep290 [DRSC08359]
- firefly reporter light, replicate 1: 59304
- firefly reporter light, replicate 2: 1.24e5
- Renilla control light, replicate 1: 1.03e6
- Renilla control light, replicate 2: 1.19e6
- Call: inactive

Cep290 [DRSC29987]
- firefly reporter light, replicate 1: 6.07e5
- firefly reporter light, replicate 2: 4.64e5
- Renilla control light, replicate 1: 1.20e6
- Renilla control light, replicate 2: 1.41e6
- Call: inactive

Gr21a [DRSC00366]
- firefly reporter light, replicate 1: 1.62e5
- firefly reporter light, replicate 2: 97782
- Renilla control light, replicate 1: 1.08e6
- Renilla control light, replicate 2: 8.49e5
- Call: inactive

Gr21a [DRSC28583]
- firefly reporter light, replicate 1: 9.69e5
- firefly reporter light, replicate 2: 9.69e5
- Renilla control light, replicate 1: 1.88e6
- Renilla control light, replicate 2: 1.59e6
- Call: inactive

CG11470 [DRSC14313]
- firefly reporter light, replicate 1: 1.64e5
- firefly reporter light, replicate 2: 1.79e5
- Renilla control light, replicate 1: 2.18e6
- Renilla control light, replicate 2: 2.03e6
- Call: inactive

Ctl1 [DRSC08303]
- firefly reporter light, replicate 1: 64707
- firefly reporter light, replicate 2: 72918
- Renilla control light, replicate 1: 9.34e5
- Renilla control light, replicate 2: 1.16e6
- Call: inactive

Gcn2 [DRSC16678]
- firefly reporter light, replicate 1: 69611
- firefly reporter light, replicate 2: 59539
- Renilla control light, replicate 1: 4.26e5
- Renilla control light, replicate 2: 3.89e5
- Call: inactive

Gcn2 [DRSC36723]
- Call: inactive

2 entries from above, reformatted:
| target | amplicon | firefly reporter light, replicate 1 | firefly reporter light, replicate 2 | Renilla control light, replicate 1 | Renilla control light, replicate 2 | Call |
| --- | --- | --- | --- | --- | --- | --- |
| Cep290 | DRSC29987 | 6.07e5 | 4.64e5 | 1.20e6 | 1.41e6 | inactive |
| Gr21a | DRSC00366 | 1.62e5 | 97782 | 1.08e6 | 8.49e5 | inactive |
